# Experimental data reported in PubChem BioAssay AID540276 (National Center for Advancing Translational Sciences (NCATS), 2011).
# The whole screen tested about 300,000 compounds, of which about 5,400 (1.8%) were called active. Inconclusive results, whose numbers are uncertain, are shown with a selection of clear calls. The call rests on the fitted dose curve; tested in HEK293 cells. Where the call is inconclusive, the potency comes from a doubtful curve fit.
# Test: qHTS for inhibitors of binding or entry into cells for Marburg Virus
# Conditions: Marburg virus pseudotyped entry inhibition, cell reporter; activity change, negative = inhibition: at 37.8 µM (top of the series) unless noted
# On the % scale 0 is the no-effect control and ±100 the full control effect; potency means the concentration at half of the fitted maximal effect.
SMILES,Potency,"activity change, negative = inhibition"
CCOC(=O)C1=C(C)NC2=C(C(=O)OC2)C1c1ccccc1 (stereo not given),"inconclusive: 6.31 µM [inhibitor, full curve]",
N#CC(=Nc1ccccc1)c1ccccc1,"inconclusive: 3.16 µM [inhibitor, single point]",
Cc1cccc(/C=N\NC(=O)c2ccc(Cl)cc2)c1O,active: 5.62 µM,
O=C(O)CCCCCCCCCCC1CCC(O)C1O (stereo not given),"inconclusive: 10 µM [inhibitor, partial curve]",
Fc1cccc(NC(=S)NCCc2ccccc2)c1,"inconclusive: 35.5 µM [inhibitor, single point]",
O=C(c1cc([N+](=O)[O-])ccc1N1CCOCC1)N1CCCC1,"inconclusive: 29.1 µM [activator, single point]",
CC1(C)CC(=O)C(C=NCCN2CCN(CCc3ccccc3)CC2)=C(O)C1,"inconclusive: 25.9 µM [inhibitor, single point]",
N#Cc1c(-c2ccccc2)cc(-c2ccc3c(c2)OCO3)[nH]c1=O,"inconclusive: 35.5 µM [inhibitor, single point]",
CN(C)CCN=Cc1c(O)n(Cc2ccco2)c(=O)[nH]c1=O,"inconclusive: 6.51 µM [activator, single point]",
O=S1(=O)N=C(N2CCN(Cc3ccc4c(c3)OCO4)CC2)c2ccccc21,"inconclusive: 0.73 µM [inhibitor, full curve, poor fit]",
CC(=O)Nc1ccc(NC(=O)C(C)OC(=O)C2CCN(S(=O)(=O)c3ccc4c(c3)OCCO4)CC2)cc1 (stereo not given),,inactive: -3.97%
COc1cc(C(CC2=C(c3ccccc3)Cc3ccccc32)NC(=O)C(F)(F)F)cc(OC)c1OC (stereo not given),,inactive: 8.22% [at 14.2 µM]
O=C(CCCC(=O)OCC(F)(F)C(F)F)Nc1ccc(NC(=O)CCCC(=O)OCC(F)(F)C(F)F)cc1,,inactive: 7.19%
COc1ccc(NS(=O)(=O)c2cccc(C(=O)NCC3(N(C)C)CCCCC3)c2)cc1,"inconclusive: 15.8 µM [inhibitor, single point]",
Fc1ccc(-c2csc(=Nc3cccc(C(F)(F)F)c3)n2Cc2ccc3c(c2)OCO3)cc1,,inactive: 5.53% [at 46.1 µM]
CCOC(=O)c1ccccc1NC(=O)C=C(C)C,"inconclusive: 12.6 µM [activator, partial curve, poor fit]",
CC(NC(=O)CSCc1ccc(Br)cc1)c1ccccc1 (stereo not given),"inconclusive: 7.08 µM [inhibitor, full curve, poor fit]",
CC(=O)Nc1ccc(S(=O)(=O)N2CCN(C(=O)N3CCCC3)CC2)cc1,,inactive: 3.83% [at 46.1 µM]
O=C(c1ccc(COc2c(F)c(F)cc(F)c2F)o1)N1CCN(c2ccccc2)CC1,"inconclusive: 29.1 µM [inhibitor, single point]",
Cn1nnnc1SCCCNCc1cc(Br)ccc1OCc1ccccc1F,"inconclusive: 22.4 µM [inhibitor, partial curve, poor fit]",
O=C1OC2(c3ccccc31)c1ccccc1-c1ccccc12,"inconclusive: 35.5 µM [inhibitor, single point]",
CCCCCCC(C)NC(=S)Nc1cc(S(=O)(=O)N(C)C)ccc1C (stereo not given),"inconclusive: 35.5 µM [inhibitor, single point]",
Cc1cc(Br)cn2cc(C(=O)O)nc12,,inactive: -3.21% [at 46.1 µM]
Cn1c(SCC(=O)Nc2cccc(Br)c2)nnc1-c1cc2ccccc2o1,"inconclusive: 16.4 µM [inhibitor, single point]",

# No new results follow: entries from further up.
SMILES,Potency,"activity change, negative = inhibition"
CC1(C)CC(=O)C(C=NCCN2CCN(CCc3ccccc3)CC2)=C(O)C1,"inconclusive: 25.9 µM [inhibitor, single point]",
N#Cc1c(-c2ccccc2)cc(-c2ccc3c(c2)OCO3)[nH]c1=O,"inconclusive: 35.5 µM [inhibitor, single point]",
CN(C)CCN=Cc1c(O)n(Cc2ccco2)c(=O)[nH]c1=O,"inconclusive: 6.51 µM [activator, single point]",
O=S1(=O)N=C(N2CCN(Cc3ccc4c(c3)OCO4)CC2)c2ccccc21,"inconclusive: 0.73 µM [inhibitor, full curve, poor fit]",

# Carrying on:

SMILES,Potency,"activity change, negative = inhibition"
CCCCNc1nc(N)nc(-c2cc(Cl)ccc2O)n1,"inconclusive: 16.4 µM [inhibitor, single point]",
COc1ccc2c(c1)/C(=C\c1cccc(/C=C3/C(=O)Nc4ccc(OC)cc43)n1)C(=O)N2,active: 1.58 µM,
Cc1cc(C)c(C(=O)Nc2ccc(Br)c(C(F)(F)F)c2)c(C)c1,"inconclusive: 16.4 µM [inhibitor, partial curve, poor fit]",
O=C(NCc1ccccc1)C(c1ccccc1)N(C(=O)c1csnn1)C1CC1 (stereo not given),"inconclusive: 6.31 µM [inhibitor, single point]",
Cc1ccc(S(=O)(=O)Nc2cc(NC(=O)CN3CCOCC3)ccc2Cl)cc1,"inconclusive: 0.231 µM [inhibitor, single point]",
COc1ccc(CNC(=O)Cc2cn(C)c3ccccc23)c(OC)c1,"inconclusive: 6.31 µM [inhibitor, full curve, poor fit]",
Cc1onc(-c2c(F)cccc2Cl)c1C(=O)Nc1cccc2nsnc12,"inconclusive: 18.3 µM [inhibitor, single point]",
CCOc1ccc(C(=O)Nc2cccc([N+](=O)[O-])c2)cc1Br,"inconclusive: 2.91 µM [activator, single point]",
Cc1ccc(-n2cc(CN(C)Cc3nccn3C)c(-c3ccc(F)cc3)n2)cc1,"inconclusive: 5.62 µM [inhibitor, full curve]",
COc1ccc(-c2csc3ncnc(N4CCN(c5ccccc5[N+](=O)[O-])CC4)c23)cc1,"inconclusive: 17.8 µM [inhibitor, single point]",
CCc1nnc(NC(=O)c2cccc(S(=O)(=O)N3CCN(c4ccccc4)CC3)c2)s1,"inconclusive: 7.08 µM [inhibitor, partial curve, poor fit]",
O=C(Nc1sc2c(c1C(=O)NCC1CCCO1)CCC2)c1cc(=O)c2cc(Cl)ccc2o1 (stereo not given),,inactive: -14.2% [at 46.1 µM]
Cc1ccc(NC(=O)C(NCc2ccccn2)c2ccccc2)cc1 (stereo not given),"inconclusive: 1 µM [inhibitor, single point]",
Cc1nn(Cc2ccccc2)c(C)c1C(=O)NCCN1C(=O)S/C(=C\c2ccccc2)C1=O,"inconclusive: 3.98 µM [inhibitor, single point]",
COc1ccc(/C=N/NC(=O)c2ccccc2O)cc1CSc1ccccn1,,inactive: 5.7%
CC(C)c1ccc(C(=O)COC(=O)C(O)c2ccccc2)cc1 (stereo not given),"inconclusive: 0.112 µM [inhibitor, full curve, poor fit]",
Cc1csc(NC(=O)CSc2nc(=O)n(CCN(C)C)c3c2CCCC3)n1,,inactive: -25.4%
O=C(CN(C1CCCCC1)S(=O)(=O)c1ccc(F)cc1)NCC1CCCO1 (stereo not given),,inactive: -11.2% [at 46.1 µM]
N#C/C=C1/NC(=O)c2ccccc2S1,,inactive: -1.79%
Cc1nn(-c2nc3ccccc3s2)c(C)c1Oc1ccccc1O,active: 4.61 µM,
CC(=O)N(CCC1(C(C)C)CCOC(C)(C)C1)C(C)c1cccs1 (stereo not given),,inactive: -21.6% [at 46.1 µM]
c1ccc(-c2nc(NCc3cccnc3)c3ccccc3n2)cc1,"inconclusive: 23.1 µM [inhibitor, single point]",
O=C(c1ccc(S(=O)(=O)Cc2ccccc2Cl)c([N+](=O)[O-])c1)N1CCOCC1,"inconclusive: 35.5 µM [inhibitor, single point]",
Cc1cccc(N(CC(=O)NCc2ccco2)C(=O)CCC(=O)Nc2nccs2)c1,,inactive: -18.9% [at 46.1 µM]

SMILES,Potency,"activity change, negative = inhibition"
CCOC(=O)C(O)(c1ccc(NC(=S)NC(=O)c2ccc(Cl)cc2Cl)c(C)c1)C(F)(F)F (stereo not given),"inconclusive: 15.8 µM [inhibitor, single point]",
CC1CCc2c(sc3nnn(CC(=O)Nc4c(C(C)C)cccc4C(C)C)c(=O)c23)C1 (stereo not given),,inactive: 0.544% [at 46.1 µM]
C=CCSc1n[nH]c(-c2ccc(OCCC)cc2)n1,,inactive: 14.6%
Cc1cc(C)cc(CC(Cc2nc3ccccc3[nH]2)c2nc3ccccc3[nH]2)c1 (stereo not given),"inconclusive: 35.5 µM [inhibitor, single point]",
O=C(OCC(=O)N1CCCC1=O)c1ccc(O)cc1O,"inconclusive: 3.98 µM [activator, full curve, poor fit]",
COc1ccc(Cc2nc3ccccc3c(=O)n2N)cc1OC,"inconclusive: 7.08 µM [inhibitor, partial curve, poor fit]",
COc1ccc(OC)c(NC(=O)c2sc3nc(C)cc(C)c3c2N)c1,,inactive: 2.05% [at 46.1 µM]
O=C1C(NS(=O)(=O)c2cccs2)=C(N2CCOCC2)C(=O)c2ccccc21,,inactive: -0.672% [at 46.1 µM]
CCC(C)c1ccc(-n2c(=O)c3ccccc3n3c(=S)[nH]nc23)cc1 (stereo not given),"inconclusive: 8.91 µM [activator, partial curve, poor fit]",
CCCc1nc(N2CCCC2)c(C#N)c2c1CCCC2,inactive,
CC1(C(=O)O)CCC(C(N)=O)C1(C)C (stereo not given),,inactive: 14.9% [at 46.1 µM]
O=C(COc1ccc(Br)cc1)N1CCN(S(=O)(=O)/C=C/c2ccccc2)CC1,"inconclusive: 7.94 µM [inhibitor, partial curve]",
O=C(c1ccc2c(c1)N(Cc1c(F)cccc1Cl)C(=O)c1ccccc1S2)N1CCCC1,"inconclusive: 3.16 µM [inhibitor, full curve, poor fit]",
CC(=O)Nc1ccc(NC(=O)C2c3ccccc3Oc3ccccc32)cc1,,inactive: -5.43% [at 46.1 µM]
Cc1ccc2cc(CN(CCCN3CCOCC3)C(c3nnnn3Cc3ccco3)C(C)C)c(=O)[nH]c2c1C (stereo not given),"inconclusive: 23.1 µM [inhibitor, partial curve, poor fit]",
CCOc1cc(NC(=S)NCC2CCCO2)c(OCC)cc1NC(=O)c1cccc(C)c1 (stereo not given),active: 1.64 µM,
COc1ccc(/C=N/OCC(=O)N2CCCC2)c(OC)c1,"inconclusive: 14.1 µM [activator, single point]",
O=C(O)c1cccc(OCc2ccccc2Cl)c1,"inconclusive: 2.59 µM [activator, partial curve, poor fit]",
CC(=O)c1ccc(S(=O)(=O)N2CCCC2)cc1,"inconclusive: 23.1 µM [activator, single point]",
O=[N+]([O-])c1cc(-c2ccc(/C=N\n3cnnc3)o2)cc([N+](=O)[O-])c1,,inactive: -0.825%
COc1ccc(OC)c(/C=N/NC2=NS(=O)(=O)c3ccccc32)c1,,inactive: -0.24%
CCN(CC(=O)Nc1ccc(C)c(S(=O)(=O)N2CCOCC2)c1)Cc1ccccc1,,inactive: -18.1%
